Publication doi:10.1101/2024.12.04.626795 (bioRxiv, 2024)

Protein sequences, listed by entry. Tags and fused reporters are not part of them. Residues count along the entry.
UniProt O00487, residues 2-310: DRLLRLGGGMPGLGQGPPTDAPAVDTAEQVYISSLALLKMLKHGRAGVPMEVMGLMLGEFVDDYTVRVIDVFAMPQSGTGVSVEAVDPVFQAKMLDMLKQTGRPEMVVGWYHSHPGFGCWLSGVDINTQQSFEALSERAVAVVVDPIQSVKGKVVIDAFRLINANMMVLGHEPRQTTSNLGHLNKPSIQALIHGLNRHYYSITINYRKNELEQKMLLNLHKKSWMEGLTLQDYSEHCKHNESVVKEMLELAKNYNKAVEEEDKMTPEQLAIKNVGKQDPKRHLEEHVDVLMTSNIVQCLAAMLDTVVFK
UniProt Q53H80: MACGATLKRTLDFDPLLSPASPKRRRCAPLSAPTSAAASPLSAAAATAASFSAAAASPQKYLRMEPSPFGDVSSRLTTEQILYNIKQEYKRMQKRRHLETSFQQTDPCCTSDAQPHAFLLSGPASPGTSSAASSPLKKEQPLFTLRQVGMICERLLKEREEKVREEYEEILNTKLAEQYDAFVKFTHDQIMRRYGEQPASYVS

B1: PITHD1 (Proteasome Interacting Thioredoxin Domain 1), wild type (natural protein)
chain: MSHGHSHGGGGCRCAAEREEPPEQRGLAYGLYLRIDLERLQCLNESREGSGRGVFKPWEERTDRSKFVESDADEELLFNIPFTGNVKLKGIIIMGEDDDSHPSEMRLYKNIPQMSFDDTEREPDQTFSLNRDLTGELEYATKISRFSNVYHLSIHISKNFGADTTKVFYIGLRGEWTELRRHEVTICNYEASANPADHRVHQVTPQTHFIS

Target: RPN11-HTBH (HTBH-tagged PSMD14), bait of the 26S proteasome affinity purification (human) (UniProt O00487)
Test: affinity purification with mass spectrometry

binding | Molecule
binds | AKIRIN2, endogenous in HEK293 cells (from UniProt Q53H80 1-203)
binds | B1

No constants are given. Whether binding was seen depends on the method and setting. Binding seen in cells or lysates may run through a third protein. A yes stands for co-enrichment or nearness to the bait. Other partners may have been found.
